In publication PMC12691606:
These are yes or no findings as the source states them, for the method shown. Binding seen in cells or lysates may run through a third protein. A yes stands for co-enrichment or nearness to the bait. Other partners may have been found.

Biological target: RGNNV capsid protein (CP) of the virus (red-spotted grouper nervous necrosis virus (RGNNV))
Assay: affinity purification with mass spectrometry; GS cells infected with RGNNV (MOI = 1) or mock-infected, 24 h post-infection; lysate incubated with resin immobilized with anti-RGNNV-CP mAb at 4°C overnight; LC-MS/MS

B1: Epinephelus coioides CXC chemokine receptor 4b, endogenous in GS cells (receptor, UniProt G0XMT3 1-367)
chain: MSYYEHIVFDYDLNDTGSGSGSGDMGVDLQELCDMEHVITDELQQVFLPVVYALIFILGITGNGLVVIVLGCQRRSKCSLTDRYRLHLSAADLLFVLALPFWAVDAALADWRFGEVTCVGVNVIYTVNLYGSVLILAFISLDRYLAVVRATDTNTGELRQLLAHKLVYVGAWLPAGLLAVPDLIYARTQEGGEGATLCQRFYPADNGPIWVAVFHLQLVLVGLVIPGLVLLVCYCVIVTRLTRGPLGGQRQKRRAVRTTIALVLCFFVCWLPYGAGISVDALLRLEVLPRSCRLEAILGVWLAVAEPMAFAHCCLNPLLYAFLGAGFKSSARRALTLSRASSLKILPRRRPGASTTTESESSSLHSS
  binding: binds
